Measurements as given in PubChem BioAssay AID2685 (National Center for Advancing Translational Sciences (NCATS), 2010).
Hit rate of the full screen: of about 320,000 compounds, about 2,100 (0.66%) were called active. Inconclusive results, whose numbers are uncertain, are shown with a selection of clear calls. Calls come from the whole dose curve; as a rule, active = well fitted inhibition curve with a large enough effect in the signal ratio, with a control signal flat (not every such curve was filed as active); inconclusive = small, poorly fitted or top-dose-only effect, or effect the other way, or a change in a side signal; inactive = flat fitted curve, though single readings scatter; the % refers to the signal ratio. A potency beside an inconclusive call is a rough fit, not a confirmed value.

test: qHTS Assay for Lipid Storage Modulators in Drosophila S3 Cells; conditions: BODIPY lipid droplet fluorescence, 18-24 h, cells fed with added oleic acid; lipid storage change, negative = inhibition: at 46.1 µM (top of the series) unless noted
Outline: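 Laser-scanning cytometry quantifies lipid droplet accumulation (500–530 nm total intensity; droplet/cell object ratio) in oleic acid-fed (400 uM added) Drosophila S3 cells treated with a concentration series. 20 uM Triacsin C defined 100% inhibition.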
% is set by controls: 0 for no effect and ±100 for the full control effect; potency is the fitted concentration of half-maximal effect.

SMILES	Potency	lipid storage change, negative = inhibition
Cc1ccc(N2CCN(C(=O)NC3CCCCC3)CC2)c(C)c1	inconclusive: 25.9 µM [falling, single point]	
CCN1CCc2c(OCC(=O)Nc3ccccc3)cccc2C1=O		inconclusive: 33.1%
COc1ccc(N2C3=[N+](CCCC3)CC2(C)O)cc1 (configuration not stated)		inconclusive: -23.4%
COc1ccc2nc3c(c(-c4ccccc4)c2c1)CCC3		inconclusive: 0.0883%
Cc1cc(OCCCCOc2ccc(C#N)cc2)ccc1[N+](=O)[O-]		inconclusive: -41.6%
CCOc1ccc(C(=O)NCc2cccnc2)cc1[N+](=O)[O-]		inconclusive: 24%
CN(C)CC(=O)N1c2ccccc2Sc2ccc(Cl)cc21		inconclusive: -0.0057%
CCN1CCN(C(c2cccs2)C(C)NS(=O)(=O)c2ccc(C)cc2)CC1 (configuration not stated)		inconclusive: 3.67%
CC(=O)Cn1ncc(N2CCOCC2)c(Cl)c1=O	inconclusive: 6.51 µM [activator, single point]	
NC(=O)C(=O)NN=C1CCC(c2ccccc2)CC1 (configuration not stated)		inconclusive: 6.68%
Cc1cc(C(=O)N2CC(C)CC(C)C2)c(C)o1 (configuration not stated)	inconclusive: 0.58 µM [falling, full curve]	
CCCC1=C(C(=O)OCC)C(c2sccc2C)n2ncnc2N1 (configuration not stated)		inconclusive: -3.79%
CCN(CC)CCCNC(=S)N1CCC(c2nc3ccccc3[nH]2)CC1	inconclusive: 18.4 µM [activator, single point]	
COC(=O)c1sccc1NS(=O)(=O)c1ccc(F)cc1F		inconclusive: 14%
O=[N+]([O-])c1cccnc1N1CCCCC1		inconclusive: 18.5%
Cc1c(NS(=O)(=O)c2cccc(C(=O)Nc3cccc(F)c3)c2)c(=O)n(-c2ccccc2)n1C		inconclusive
CCc1ccc(NC(=O)CN2C(=O)CSC2=O)cc1		inactive
C=CCn1c(SCC(=O)c2ccc(OC)cc2)nnc1-c1ccc2c(c1)OCO2		inconclusive: 27.5%
Cc1ncn(C23CC4CC(CC(O)(C4)C2)C3)n1		inconclusive: -5.73%
O=C(/C=C1\SC(=O)N(CC(=O)Nc2ccc(F)cc2)C1=O)Nc1ccc(Cl)cc1		inconclusive: -0.59%
Nn1c(Cc2cccc3ccccc23)nnc1SCC(=O)NCC1CCCO1 (configuration not stated)		inconclusive: 7.46%

SMILES	Potency	lipid storage change, negative = inhibition
O=C(COc1coc(CN2CCN(c3ccccc3)CC2)cc1=O)NCC1CCCO1 (configuration not stated)		inactive
CC1OC2C(OC1C)N(S(C)(=O)=O)CCN2S(C)(=O)=O (configuration not stated)		inconclusive: 34.1%
O=C(c1cccc(F)c1)N1CCc2ccccc2C1		inconclusive: -7.58%
O=C(Nc1ccccc1C(F)(F)F)C1CCN(C(=O)Cc2ccccc2)CC1		inconclusive: -11.4%
O=C(CSc1nc2c(c(=O)n1-c1ccc(Cl)cc1)SCC2)NCC1CCCO1 (configuration not stated)	inconclusive: 1.46 µM [activator, partial curve, poor fit]	
CCOc1ccc(Br)cc1S(=O)(=O)NCc1ccncc1		inactive
COc1ccc(C(=O)NC(=S)Nc2ccccc2N2CCOCC2)cc1Br		inconclusive: 4.07%
CCc1ccc2nc3sc(C(=O)N4CCc5ccccc54)c(N)c3cc2c1		inconclusive: 13.7%
O=C(Nc1ccccc1N1CCN(C(=O)c2ccccc2)CC1)c1cccc(Cl)c1		inactive
O=C(Nc1ccc(F)cc1Cl)C1=COCCO1		inconclusive
CSc1ccc(Cn2nnc(C(=O)Nc3ccc(C)c(C)c3)c2N)cc1		inconclusive: -5.33%
COc1ccc(CNC(=O)CCNS(=O)(=O)c2ccc3c(c2)oc(=O)n3C)cc1		inactive
CCc1nnc(NC(=O)CCNC(=O)c2ccccc2Cl)s1		inconclusive: 0.0448%
CNS(=O)(=O)c1ccc(NC(=S)Nc2ccc3c(c2)OCO3)cc1		inconclusive: 9.86%
Clc1ccc(-c2nc(C3CCCCC3)no2)cc1	inconclusive: 29.1 µM [cytotoxic, single point]	
Cc1c([N+](=O)[O-])c(C(=O)Sc2ccc(Br)cc2)nn1C		inconclusive: -74%
O=C(NCc1ccc2c(c1)OCO2)C(=O)Nc1ccccc1		inconclusive: 27.6%
CCOC(=O)C(NC(=O)Cc1ccccc1)(Nc1cc(C)on1)C(F)(F)F (configuration not stated)		inconclusive: -18.3%
COc1ccc(CCNC(=O)CC(Cc2ccccc2)C(=O)O)cc1OC (configuration not stated)	inconclusive: 29.1 µM [rising, single point]	
COc1ccc(N(C(=O)Cc2cccs2)C2C=CS(=O)(=O)C2)cc1 (configuration not stated)	inconclusive: 0.103 µM [falling, full curve, poor fit]	
Cc1cc(C(=O)OCC(=O)Nc2cccc(S(=O)(=O)N(C)C)c2)c(C)o1		inconclusive: 17.1%

SMILES	Potency	lipid storage change, negative = inhibition
CCOc1ccc(N(CC(=O)NCC2CCCO2)C(=O)CCC(=O)Nc2nccs2)cc1 (configuration not stated)		inconclusive: 26.2%
CCOc1ccc(C(=O)NCc2ccc3c(c2)OCO3)cc1		inconclusive: 281%
O=C(CN(c1ccccn1)S(=O)(=O)c1ccc(F)cc1)Nc1ccc(F)cc1F		inconclusive: -22.3%
Cc1ccc(C)c(S(=O)(=O)N2CCN(CC(=O)NC(=O)NCc3ccccc3)CC2)c1		inconclusive: -62.7%
Cc1ccc(S(=O)(=O)Nc2cc(C)nn2-c2ccccc2)cc1	inconclusive: 18.4 µM [activator, single point]	
COc1cc(NC(=O)COc2cc(O)c3c(c2)OC(C)(C)CC3=O)cc(OC)c1	inconclusive: 23.1 µM [falling, single point]	
CC(=O)c1c(C)[nH]c(C(=O)CN2C(=O)NC(C)(C)C2=O)c1C	inconclusive: 20.6 µM [activator, partial curve]	
Cc1cc(C(=O)Nc2ccccc2N2CCCCC2)no1		inconclusive: 5.02%
Cc1cc(C)nc(N2CCC(C(=O)O)CC2)n1		inactive
CCOc1ccc(NC(=O)CN(C)C(=O)c2cccnc2Sc2ccc(Cl)cc2)cc1OCC		inconclusive: -45.3%
Cc1ccc(S(=O)(=O)NCC(=O)Nc2ccc3c(c2)OCCO3)cc1		inconclusive: 87.7%
Cc1cc(CNC(=O)C2CCC(=O)N(CCc3cccc(F)c3)C2)on1 (configuration not stated)		inconclusive: 58.5%
CCOC(=O)[C@@H]1[C@H]2COc3ccc(Br)cc3[C@@H]2N2C(=O)N(c3ccccc3)C(=O)[C@]12C	inconclusive: 16.4 µM [activator, partial curve]	
COc1ccc(CNC(=O)CCc2nnc3ccc(N4CCC5(CC4)OCCO5)nn23)cc1	inconclusive: 6.51 µM [falling, single point]	
O=C(Nc1nc2ccc(F)cc2s1)c1ccc(N2CCCC2=O)cc1		inactive
CC1=C(c2ccc(Cl)cc2)[N+](=O)C(C)(C)N1[O-]		inconclusive: -8.82%
CC1CCN(C(=O)c2cc(-c3ccccc3O)on2)CC1		inconclusive: -19.7% [at 9.22 µM]
C=CCOc1ccccc1/C=N/n1nnnc1N		inconclusive: -30.5%
CCN(CC)S(=O)(=O)c1ccc(C(=O)Nc2cc(C)cc(C)c2)cc1		inconclusive: -44%
CCOc1ccc(-c2nc(N)nc(C)c2-c2ccc(OC)c(OC)c2)c(O)c1		inconclusive: 2.53%
Cc1ccc2oc(=O)n(CCC(=O)Nc3ccc(N4CCOCC4)cc3)c2c1		inconclusive: 47.9%

Look-ups from the list.
Under lipid storage change, negative = inhibition, CCOc1ccc(C(=O)NCc2ccc3c(c2)OCO3)cc1 is listed with inconclusive: 281%
Under Potency, COc1cc(NC(=O)COc2cc(O)c3c(c2)OC(C)(C)CC3=O)cc(OC)c1 is listed with inconclusive: 23.1 µM [falling, single point]

Following part

SMILES	Potency	lipid storage change, negative = inhibition
COc1ccc(/C=C2\SC(=O)N(CCNC(=O)C3CCN(S(=O)(=O)c4cccs4)CC3)C2=O)cc1		inconclusive: -28%
Cn1c(=O)c2c(SCC(=O)Nc3cccc(F)c3)nc(-c3ccco3)nc2n(C)c1=O		inconclusive: -25.5%
COc1ccc(N2CCN(C(c3cccs3)C(C)NC(=O)C(=O)N3CCCCC3)CC2)cc1 (configuration not stated)	inconclusive: 29.1 µM [falling, single point]	
Cc1cccc(NC(=O)CSc2nnc(CNC(=O)c3cccs3)o2)c1C		inconclusive: -16%
CC(C)CN(C(=O)CSc1ncnc2ccccc12)C1CCS(=O)(=O)C1 (configuration not stated)		inconclusive: 1.86%
CCC(C(=O)Nc1ccccc1)c1ccccc1 (configuration not stated)	inconclusive: 29.1 µM [rising, single point]	
CN(C)S(=O)(=O)c1ccc(NCC2COc3ccccc3O2)c([N+](=O)[O-])c1 (configuration not stated)		inconclusive: -15.8%
O=C(N/N=C/C1CCCCC1)c1ccccn1		inconclusive: 26.2%
O=C(Nc1ccn(Cc2ccccc2)n1)c1ccc(F)cc1	inconclusive: 18.4 µM [falling, single point]	
Cc1nc(CS(=O)c2ccc(Cl)cc2)cc(N2CCOCC2)n1 (configuration not stated)		inactive
CN(CC(=O)Nc1cccc(F)c1)CC(=O)Nc1cc(S(=O)(=O)N2CCOCC2)ccc1Cl	inconclusive: 4.11 µM [falling, single point]	
COc1ccc(OC)c(NC(=O)Cn2cc(C#N)c3ccccc32)c1	inconclusive: 3.26 µM [activator, single point]	
COc1ccc(C(=O)C2CCCN(Cc3ccc4nonc4c3)C2)cc1OC (configuration not stated)		inconclusive: 8.26%
CC(C)C[C@H](NC(=O)c1[nH]cnc1C(=O)N[C@H](C)c1ccccc1)C(=O)OCc1ccccc1		inconclusive: -7.83%
O=C(Nc1ccc(N2CCN(c3ccccc3)CC2)c(F)c1)C1CC1		inconclusive: 9.56%
O=C(COc1ccc(S(=O)(=O)N2CCOCC2)cc1)NCc1ccccc1		inconclusive: -45.3%
Nc1ccccc1SC1CC(=O)N(c2ccc3c(c2)OCCO3)C1=O (configuration not stated)		inconclusive: 22.1%
Cc1ccc(C(=O)NCCONC(=O)c2ccc(C)cc2)cc1		inconclusive: -0.464%
Cn1c(NCc2ccccc2)cc(=O)n(C)c1=O	inconclusive: 0.0046 µM [falling, full curve, poor fit]	
